From publication PMC3662314
These are yes or no findings as the source states them, for the method shown. Binding seen in cells or lysates may run through a third protein.

The chains behind the UniProt entries cited, without tags or fusion partners.
UniProt P78527: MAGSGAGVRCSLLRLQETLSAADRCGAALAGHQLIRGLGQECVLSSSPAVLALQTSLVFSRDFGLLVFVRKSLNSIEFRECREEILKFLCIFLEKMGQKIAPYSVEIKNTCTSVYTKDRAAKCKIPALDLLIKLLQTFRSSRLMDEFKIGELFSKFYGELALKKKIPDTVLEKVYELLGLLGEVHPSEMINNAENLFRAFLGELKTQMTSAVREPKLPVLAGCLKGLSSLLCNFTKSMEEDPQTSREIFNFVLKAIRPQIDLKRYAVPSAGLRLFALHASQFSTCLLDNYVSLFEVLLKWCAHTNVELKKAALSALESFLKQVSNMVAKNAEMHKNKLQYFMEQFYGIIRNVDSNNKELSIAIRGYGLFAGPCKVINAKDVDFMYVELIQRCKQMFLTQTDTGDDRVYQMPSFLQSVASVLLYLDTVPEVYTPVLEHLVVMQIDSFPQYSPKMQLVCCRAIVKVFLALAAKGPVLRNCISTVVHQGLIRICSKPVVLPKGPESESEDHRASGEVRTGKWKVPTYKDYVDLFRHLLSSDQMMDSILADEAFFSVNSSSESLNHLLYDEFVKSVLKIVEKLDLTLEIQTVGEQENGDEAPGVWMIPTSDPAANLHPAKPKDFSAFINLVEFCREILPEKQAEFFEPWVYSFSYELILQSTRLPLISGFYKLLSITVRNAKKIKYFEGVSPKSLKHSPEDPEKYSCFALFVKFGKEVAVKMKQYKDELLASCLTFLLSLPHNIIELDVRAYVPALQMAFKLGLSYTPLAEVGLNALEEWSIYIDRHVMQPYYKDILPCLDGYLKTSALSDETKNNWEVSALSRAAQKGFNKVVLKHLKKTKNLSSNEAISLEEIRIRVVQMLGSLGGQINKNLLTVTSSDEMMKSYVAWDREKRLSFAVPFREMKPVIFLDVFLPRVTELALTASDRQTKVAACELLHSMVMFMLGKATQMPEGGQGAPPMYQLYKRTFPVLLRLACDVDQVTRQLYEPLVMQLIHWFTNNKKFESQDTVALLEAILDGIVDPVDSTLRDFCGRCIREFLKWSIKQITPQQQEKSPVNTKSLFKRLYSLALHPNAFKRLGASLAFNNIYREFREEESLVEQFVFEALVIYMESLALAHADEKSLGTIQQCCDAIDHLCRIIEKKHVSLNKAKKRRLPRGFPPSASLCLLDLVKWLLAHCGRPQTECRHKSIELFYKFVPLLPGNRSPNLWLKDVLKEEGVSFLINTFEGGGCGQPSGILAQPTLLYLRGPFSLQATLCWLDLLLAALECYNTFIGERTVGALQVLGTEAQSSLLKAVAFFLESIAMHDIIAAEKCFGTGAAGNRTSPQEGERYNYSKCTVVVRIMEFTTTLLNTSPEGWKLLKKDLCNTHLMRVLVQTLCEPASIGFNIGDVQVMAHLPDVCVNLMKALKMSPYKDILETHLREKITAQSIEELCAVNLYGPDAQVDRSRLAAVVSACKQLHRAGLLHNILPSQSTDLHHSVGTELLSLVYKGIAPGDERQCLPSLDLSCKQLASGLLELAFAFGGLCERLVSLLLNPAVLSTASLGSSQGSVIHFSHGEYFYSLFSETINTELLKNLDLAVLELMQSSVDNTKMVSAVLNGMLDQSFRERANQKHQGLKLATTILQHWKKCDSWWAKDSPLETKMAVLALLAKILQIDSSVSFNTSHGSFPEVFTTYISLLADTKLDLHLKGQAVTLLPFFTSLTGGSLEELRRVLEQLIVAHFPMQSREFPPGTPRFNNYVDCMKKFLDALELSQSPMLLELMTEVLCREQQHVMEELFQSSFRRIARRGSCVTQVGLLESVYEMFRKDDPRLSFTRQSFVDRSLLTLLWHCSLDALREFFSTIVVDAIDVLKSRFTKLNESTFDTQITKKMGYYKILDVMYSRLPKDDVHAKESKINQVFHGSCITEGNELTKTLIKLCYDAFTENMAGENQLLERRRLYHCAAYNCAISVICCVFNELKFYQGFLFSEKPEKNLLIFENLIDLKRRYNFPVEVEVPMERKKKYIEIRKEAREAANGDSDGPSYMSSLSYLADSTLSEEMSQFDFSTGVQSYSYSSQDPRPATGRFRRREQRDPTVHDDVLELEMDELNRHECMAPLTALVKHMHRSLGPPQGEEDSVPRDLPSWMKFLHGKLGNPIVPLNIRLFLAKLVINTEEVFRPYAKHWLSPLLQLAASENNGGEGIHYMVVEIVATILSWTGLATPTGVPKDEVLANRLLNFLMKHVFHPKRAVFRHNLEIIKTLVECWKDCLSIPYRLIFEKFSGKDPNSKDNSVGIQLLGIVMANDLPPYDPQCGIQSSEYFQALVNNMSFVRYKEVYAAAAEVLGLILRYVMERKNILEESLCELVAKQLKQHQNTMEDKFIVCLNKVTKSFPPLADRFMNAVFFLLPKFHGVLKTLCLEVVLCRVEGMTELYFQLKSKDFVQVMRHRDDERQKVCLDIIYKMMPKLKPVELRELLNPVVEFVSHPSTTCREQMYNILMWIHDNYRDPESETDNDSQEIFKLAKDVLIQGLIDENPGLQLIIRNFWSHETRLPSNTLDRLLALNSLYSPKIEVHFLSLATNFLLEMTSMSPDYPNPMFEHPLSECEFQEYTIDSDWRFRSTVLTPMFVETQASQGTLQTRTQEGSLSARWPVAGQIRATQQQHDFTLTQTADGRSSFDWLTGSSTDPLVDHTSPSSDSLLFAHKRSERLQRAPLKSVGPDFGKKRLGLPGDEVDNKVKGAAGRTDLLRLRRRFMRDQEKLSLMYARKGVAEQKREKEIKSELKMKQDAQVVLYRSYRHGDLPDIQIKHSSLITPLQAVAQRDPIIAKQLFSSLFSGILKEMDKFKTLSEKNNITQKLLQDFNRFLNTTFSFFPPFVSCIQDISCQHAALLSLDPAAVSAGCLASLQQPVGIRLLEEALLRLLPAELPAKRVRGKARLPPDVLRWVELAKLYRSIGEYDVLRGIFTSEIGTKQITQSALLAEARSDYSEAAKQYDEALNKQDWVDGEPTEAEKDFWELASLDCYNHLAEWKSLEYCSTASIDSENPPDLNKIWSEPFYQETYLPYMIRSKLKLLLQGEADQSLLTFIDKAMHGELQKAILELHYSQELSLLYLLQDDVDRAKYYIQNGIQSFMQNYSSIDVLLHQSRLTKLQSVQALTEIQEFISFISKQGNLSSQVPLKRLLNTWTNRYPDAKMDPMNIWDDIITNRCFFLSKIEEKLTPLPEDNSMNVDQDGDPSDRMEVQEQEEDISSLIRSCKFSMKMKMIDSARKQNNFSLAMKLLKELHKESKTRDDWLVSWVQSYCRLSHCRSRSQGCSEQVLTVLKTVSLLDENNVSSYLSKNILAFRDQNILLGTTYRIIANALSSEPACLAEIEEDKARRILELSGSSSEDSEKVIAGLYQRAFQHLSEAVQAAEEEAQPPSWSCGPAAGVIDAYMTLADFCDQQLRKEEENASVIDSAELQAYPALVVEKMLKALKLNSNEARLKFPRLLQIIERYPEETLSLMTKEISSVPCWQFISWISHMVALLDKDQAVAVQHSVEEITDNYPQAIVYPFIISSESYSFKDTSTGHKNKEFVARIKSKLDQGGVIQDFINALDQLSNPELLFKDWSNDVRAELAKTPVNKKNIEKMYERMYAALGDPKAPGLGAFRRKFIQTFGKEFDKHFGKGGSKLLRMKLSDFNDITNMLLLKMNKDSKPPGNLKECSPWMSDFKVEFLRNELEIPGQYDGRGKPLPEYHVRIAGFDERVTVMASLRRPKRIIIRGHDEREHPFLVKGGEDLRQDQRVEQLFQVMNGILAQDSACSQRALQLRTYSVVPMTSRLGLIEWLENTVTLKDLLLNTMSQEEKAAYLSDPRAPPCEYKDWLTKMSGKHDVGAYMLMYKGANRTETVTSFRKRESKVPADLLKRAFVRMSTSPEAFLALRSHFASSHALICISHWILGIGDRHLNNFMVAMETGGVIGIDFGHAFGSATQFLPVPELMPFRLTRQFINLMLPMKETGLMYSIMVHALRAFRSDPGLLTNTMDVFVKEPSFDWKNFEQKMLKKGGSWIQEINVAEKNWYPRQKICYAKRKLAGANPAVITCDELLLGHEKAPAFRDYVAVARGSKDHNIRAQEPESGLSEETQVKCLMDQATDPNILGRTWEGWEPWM

Molecular target: DNA-PK catalytic subunit (human (endogenous in MDAH-2774, TOV-112D, SKOV-3, TOV-21G cells and primary HG-EOC tumours)) (UniProt P78527)
Assay: co-IP; endogenous proteins in total lysates of MDAH (p53^R273H) and TOV-112D (p53^R175H) cells, SKOV-3 (p53 null) and control IgG as negative controls; in MDAH also after stathmin shRNA (interaction significantly impaired, IP anti-p53) and after 3 h CBDCA (twofold more p53 bound to DNA-PK, IP anti-DNA-PK)

binding: no binding
B1: stathmin 1 (protein, UniProt P16949 1-149)
chain: MASSDIQVKELEKRASGQAFELILSPRSKESVPEFPLSPPKKKDLSLEEIQKKLEAAEERRKSHEAEVLKQLAEKREHEKEVLQKAIEENNNFSKMAEEKLTHKMEANKENREAQMAAKLERLREKDKHIEEVRKNKESKDPADETEAD
